Only a part is listed here, and it is no random draw. For part of these data: At the low end of the ranking, values are background and their order means little. The list shows a part of the results. For part of these data: The source does not settle which construct or isoform was used.

Sequences of proteins named here, by UniProt entry; tags and fusion partners are left off. A change or cut given only in a name is not applied to a line headed by its entry.
UniProt P32519: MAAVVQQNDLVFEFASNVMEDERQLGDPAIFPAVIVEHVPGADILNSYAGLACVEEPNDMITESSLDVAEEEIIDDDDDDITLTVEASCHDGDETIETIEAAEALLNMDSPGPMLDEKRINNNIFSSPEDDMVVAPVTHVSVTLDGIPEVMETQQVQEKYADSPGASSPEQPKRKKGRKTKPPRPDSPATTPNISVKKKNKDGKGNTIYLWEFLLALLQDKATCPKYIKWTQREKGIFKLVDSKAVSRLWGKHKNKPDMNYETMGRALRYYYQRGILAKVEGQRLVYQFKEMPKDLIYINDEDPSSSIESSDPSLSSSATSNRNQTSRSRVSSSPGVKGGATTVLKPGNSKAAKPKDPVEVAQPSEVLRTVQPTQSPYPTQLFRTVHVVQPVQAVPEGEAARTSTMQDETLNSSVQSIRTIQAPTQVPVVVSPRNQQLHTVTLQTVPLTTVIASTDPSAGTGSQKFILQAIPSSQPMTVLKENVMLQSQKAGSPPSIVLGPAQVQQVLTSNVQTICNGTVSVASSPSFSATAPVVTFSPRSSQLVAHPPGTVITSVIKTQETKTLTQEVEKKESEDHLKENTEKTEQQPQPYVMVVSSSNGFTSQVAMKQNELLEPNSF
UniProt P50549: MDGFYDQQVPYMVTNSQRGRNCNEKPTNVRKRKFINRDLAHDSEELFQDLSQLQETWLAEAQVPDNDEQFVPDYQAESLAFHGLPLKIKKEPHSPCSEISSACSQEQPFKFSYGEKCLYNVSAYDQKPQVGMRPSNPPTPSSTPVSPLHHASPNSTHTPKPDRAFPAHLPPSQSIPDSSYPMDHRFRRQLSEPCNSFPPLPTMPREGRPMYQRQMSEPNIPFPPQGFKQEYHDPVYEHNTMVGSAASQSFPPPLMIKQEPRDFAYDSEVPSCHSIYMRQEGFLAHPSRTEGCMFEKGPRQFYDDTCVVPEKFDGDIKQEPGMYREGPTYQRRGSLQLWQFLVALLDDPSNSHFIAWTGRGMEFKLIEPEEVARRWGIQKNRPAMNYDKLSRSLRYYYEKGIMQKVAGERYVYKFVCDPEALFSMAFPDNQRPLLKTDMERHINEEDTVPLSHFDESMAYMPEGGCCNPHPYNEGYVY

Holding throughout (assay): DAPPL (digital affinity profiling via proximity ligation, sequencing)
Conditions in all cases: 10 mM Tris-HCl pH 7.5, 50 mM NaCl, 1 mM DTT, 4% glycerol, room temperature, 30 min; GST-TFs on glutathione beads, 16-mer random dsDNA library, 0.1% …; high values mean tight binding; double strand, one strand shown; scale: fold enrichment (6-mer frequency, TF over GST control)

One assay deals with T1, ERG (UniProt P11308).
T1 sequence: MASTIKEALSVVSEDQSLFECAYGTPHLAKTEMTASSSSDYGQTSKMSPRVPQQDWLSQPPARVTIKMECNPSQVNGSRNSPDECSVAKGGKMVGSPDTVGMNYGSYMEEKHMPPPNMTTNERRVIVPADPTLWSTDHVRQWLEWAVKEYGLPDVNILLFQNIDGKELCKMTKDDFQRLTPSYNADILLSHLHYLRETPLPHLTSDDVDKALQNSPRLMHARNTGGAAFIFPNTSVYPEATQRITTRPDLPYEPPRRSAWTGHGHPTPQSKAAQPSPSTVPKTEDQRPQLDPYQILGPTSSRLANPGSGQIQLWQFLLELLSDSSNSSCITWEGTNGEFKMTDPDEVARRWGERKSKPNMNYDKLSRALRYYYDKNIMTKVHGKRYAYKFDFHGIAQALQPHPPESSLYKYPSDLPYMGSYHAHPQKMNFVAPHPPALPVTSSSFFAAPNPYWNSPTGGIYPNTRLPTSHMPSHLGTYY

The target of another assay is ELF1 (UniProt P32519).
The target in another assay is T2, ELK4 (UniProt P28324-2).
T2 sequence: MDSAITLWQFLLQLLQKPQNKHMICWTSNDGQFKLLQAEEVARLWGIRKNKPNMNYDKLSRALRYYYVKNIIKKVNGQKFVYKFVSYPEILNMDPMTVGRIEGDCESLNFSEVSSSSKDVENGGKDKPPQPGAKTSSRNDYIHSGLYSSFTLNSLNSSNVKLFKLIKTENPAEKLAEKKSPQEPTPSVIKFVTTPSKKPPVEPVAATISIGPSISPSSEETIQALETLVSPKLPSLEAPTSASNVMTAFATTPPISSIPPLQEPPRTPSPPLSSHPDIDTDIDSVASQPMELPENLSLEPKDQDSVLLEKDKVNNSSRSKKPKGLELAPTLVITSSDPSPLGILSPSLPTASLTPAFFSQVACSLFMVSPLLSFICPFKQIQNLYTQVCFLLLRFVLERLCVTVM

Another assay deals with T3, ETV4 (UniProt P43268).
T3 sequence: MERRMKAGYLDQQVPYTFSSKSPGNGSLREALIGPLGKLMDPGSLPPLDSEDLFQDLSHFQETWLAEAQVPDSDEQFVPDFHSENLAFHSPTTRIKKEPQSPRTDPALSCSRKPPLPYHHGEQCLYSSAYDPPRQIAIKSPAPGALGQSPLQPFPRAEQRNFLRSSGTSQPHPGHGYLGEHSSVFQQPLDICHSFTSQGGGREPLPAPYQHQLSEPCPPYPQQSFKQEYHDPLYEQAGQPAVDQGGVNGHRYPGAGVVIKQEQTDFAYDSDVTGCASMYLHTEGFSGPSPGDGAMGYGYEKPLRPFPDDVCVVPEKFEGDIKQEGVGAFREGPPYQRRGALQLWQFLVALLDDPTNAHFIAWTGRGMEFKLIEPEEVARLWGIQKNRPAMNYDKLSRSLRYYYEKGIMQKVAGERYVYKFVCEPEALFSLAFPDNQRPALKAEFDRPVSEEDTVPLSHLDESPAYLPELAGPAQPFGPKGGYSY

The target of another assay is ETV1 (UniProt P50549).
For the next assay, the target named is T4, ERF (UniProt P50548).
T4 sequence: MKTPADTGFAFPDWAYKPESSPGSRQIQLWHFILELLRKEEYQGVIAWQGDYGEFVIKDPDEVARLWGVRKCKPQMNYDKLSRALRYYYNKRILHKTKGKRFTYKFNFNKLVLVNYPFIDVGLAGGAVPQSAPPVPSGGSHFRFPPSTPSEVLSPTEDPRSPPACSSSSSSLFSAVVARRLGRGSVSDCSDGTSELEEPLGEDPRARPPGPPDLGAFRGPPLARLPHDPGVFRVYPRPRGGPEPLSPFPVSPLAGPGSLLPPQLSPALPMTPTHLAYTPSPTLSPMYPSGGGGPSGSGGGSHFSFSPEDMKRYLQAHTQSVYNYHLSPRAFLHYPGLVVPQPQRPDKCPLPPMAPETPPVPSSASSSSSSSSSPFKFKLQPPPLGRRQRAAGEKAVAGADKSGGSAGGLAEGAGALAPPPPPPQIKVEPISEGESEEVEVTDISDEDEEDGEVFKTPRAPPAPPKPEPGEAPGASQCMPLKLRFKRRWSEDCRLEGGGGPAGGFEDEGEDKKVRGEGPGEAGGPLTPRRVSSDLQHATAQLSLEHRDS

Turning to CCAGTT, the binding signal with ERG worked out at 0.702; with ELF1, 0.631; in the assay with ELK4 it was 0.615; with ETV4, 0.621; with ETV1, 0.614; in the assay with ERF it was 0.628.

In the case of CGCGGA, the binding signal is 0.95 in the assay with ERG; 0.915 in the assay with ELF1; 0.846 with ELK4; 0.845 in the assay with ETV4; 0.929 in the assay with ETV1; 0.884 with ERF.

For CGAGGC, the binding signal in the assay with ERG was determined as 0.688; with ELF1 it was 0.661; with ELK4, 0.67; with ETV4 it was 0.596; with ETV1 it was 0.736; with ERF, 0.709.

In the case of CGGAGC, the binding signal was 0.415 with ERG; 0.373 with ELF1; 0.398 with ELK4; 0.38 with ETV4; 0.398 with ETV1; 0.433 with ERF.

In the case of GTCGGT, the binding signal was 0.293 with ERG; 0.291 in the assay with ELF1; 0.335 with ELK4; 0.271 in the assay with ETV4; 0.312 in the assay with ETV1; 0.295 in the assay with ERF.

As for GGCACG, the binding signal with ERG stood at 0.876; with ELF1, 0.848; with ELK4 it was 0.837; in the assay with ETV4 it was 0.887; with ETV1, 0.818; with ERF it was 0.843.

Regarding AGGTGC, the binding signal was 0.602 with ERG; 0.662 with ELF1; 0.696 with ELK4; 0.596 with ETV4; 0.736 with ETV1; 0.643 with ERF.

With AGACGG, the binding signal came to 0.361 with ERG; 0.348 with ELF1; 0.362 with ELK4; 0.343 with ETV4; 0.373 in the assay with ETV1; 0.374 with ERF.

TCAGGT: the binding signal in the assay with ERG worked out at 0.802; with ELF1 it was 0.833; in the assay with ELK4, 0.883; in the assay with ETV4, 0.816; with ETV1 it was 0.888; in the assay with ERF, 0.854.

As for CGGCCG, the binding signal stood at 0.877 in the assay with ERG; 0.834 with ELF1; 0.958 with ELK4; 0.926 in the assay with ETV4; 0.898 in the assay with ETV1; 0.751 with ERF.

For the sequence GGTAGT, the binding signal was found to be 0.71 with ERG; 0.715 with ELF1; 0.704 in the assay with ELK4; 0.764 with ETV4; 0.782 with ETV1; 0.717 in the assay with ERF.

As to CGGGGT, the binding signal with ERG was determined as 0.637; in the assay with ELF1, 0.675; with ELK4 it was 0.544; with ETV4, 0.652; with ETV1, 0.656; with ERF, 0.619.

For CGGGCA, the binding signal with ERG is 0.724; with ELF1, 0.744; with ELK4 it was 0.727; with ETV4 it was 0.746; with ETV1, 0.743; with ERF it was 0.732.

In the case of GAGCGC, the binding signal with ERG amounted to 0.586; with ELF1, 0.617; in the assay with ELK4, 0.581; with ETV4, 0.552; with ETV1 it was 0.572; with ERF, 0.634.

For the sequence AACGGG, the binding signal with ERG was found to be 0.762; with ELF1, 0.711; in the assay with ELK4, 0.742; in the assay with ETV4 it was 0.733; with ETV1 it was 0.688; with ERF it was 0.686.

Consider CAGGGT, for which the binding signal in the assay with ERG amounted to 0.854; with ELF1 it was 0.848; in the assay with ELK4, 0.848; in the assay with ETV4 it was 0.849; with ETV1, 0.875; with ERF, 0.897.

As for GGAACC, the binding signal with ERG was found to be 0.846; in the assay with ELF1, 0.796; with ELK4, 0.831; in the assay with ETV4, 0.83; with ETV1 it was 0.841; with ERF, 0.772.

On to GGATCG, for which the binding signal with ERG is 0.611; with ELF1 it was 0.546; with ELK4, 0.611; in the assay with ETV4 it was 0.565; with ETV1 it was 0.659; in the assay with ERF it was 0.594.

With GTGGTG, the binding signal with ERG came to 0.997; with ELF1 it was 0.927; with ELK4 it was 0.974; with ETV4 it was 0.881; with ETV1, 0.916; in the assay with ERF, 0.926.

TGAGTC: the binding signal was found to be 0.216 in the assay with ERG; 0.184 with ELF1; 0.185 with ELK4; 0.186 with ETV4; 0.193 with ETV1; 0.208 with ERF.

On to AGTCTG, for which the binding signal was 0.626 with ERG; 0.602 with ELF1; 0.657 with ELK4; 0.606 with ETV4; 0.608 with ETV1; 0.593 with ERF.

As to CACGGT, the binding signal with ERG was found to be 0.86; with ELF1, 0.956; in the assay with ELK4, 0.817; with ETV4, 0.916; with ETV1, 0.983; in the assay with ERF, 0.895.

GGGTTG: the binding signal worked out at 0.788 with ERG; 0.828 with ELF1; 0.954 with ELK4; 0.941 with ETV4; 0.828 in the assay with ETV1; 0.838 in the assay with ERF.

As to GTAAGG, the binding signal in the assay with ERG amounted to 0.67; with ELF1 it was 0.766; with ELK4, 0.711; with ETV4, 0.715; with ETV1, 0.766; with ERF, 0.706.

On to GGCAAG, for which the binding signal with ERG amounted to 0.682; with ELF1, 0.708; with ELK4, 0.727; with ETV4 it was 0.699; in the assay with ETV1, 0.778; with ERF it was 0.775.

As to CGCGGG, the binding signal in the assay with ERG is 0.77; with ELF1 it was 0.73; with ELK4, 0.693; with ETV4, 0.737; with ETV1, 0.764; with ERF, 0.719.

In the case of GTGGGA, the binding signal with ERG stood at 0.612; with ELF1, 0.551; with ELK4 it was 0.599; in the assay with ETV4, 0.518; with ETV1 it was 0.57; with ERF it was 0.589.

Turning to GTCGTC, the binding signal is 0.65 with ERG; 0.773 in the assay with ELF1; 0.75 with ELK4; 0.749 in the assay with ETV4; 0.723 with ETV1; 0.693 with ERF.

Consider AGGGCG, for which the binding signal in the assay with ERG stood at 0.564; with ELF1, 0.584; in the assay with ELK4, 0.538; with ETV4, 0.592; with ETV1 it was 0.569; with ERF, 0.543.

Turning to TGCCAG, the binding signal in the assay with ERG was found to be 0.686; in the assay with ELF1, 0.702; with ELK4 it was 0.713; with ETV4, 0.621; with ETV1, 0.707; with ERF it was 0.719.

The values are drawn from article PMC7862700.
